The record followed here is PubChem BioAssay AID248 (DTP/NCI, 2004).

The structures appear in SMILES notation. The list is a part of this screen's results and no random one: it gathers tests that were run many times, whatever their T/C, doses with no T/C, and many T/C values between a quarter and a half above the control. Other doses and runs of a compound stand elsewhere. T/C is the treated group as % of the vehicle group. Some entries give survivors of the animals treated and no T/C: the source holds a T/C of zero for them, seemingly a mark for toxic or unscored doses. Some doses without a T/C left all or most animals alive at the check, yet need not have been tolerated: survival well below the control is almost never listed, so the zero probably covers shortened survival too. Survivors were counted at the toxicity check, usually on the fifth day, unless a day is given; later deaths do not show. Schedule codes are those of the source, taken here to give the interval after Q, in days (D) or hours (H), and the number of doses after X. Where survival is the endpoint, the PubChem record calls one and a half times the control and up active, and a quarter to a half above the control has no call in these data; cut-offs in other NCI protocols can differ.

The experiment has as its system L1210 leukemia ip in BDF1 mice, survival T/C. In words: NCI In Vivo Anticancer Drug Screen. Data for tumor model L1210 Leukemia (intraperitoneal) in B6D2F1 (BDF1) mice. Conditions: T/C endpoint: mean survival time, higher T/C = longer survival.
[1] abbreviates: dose: 8.0 mg/kg/injection, schedule: Q04DX003 (ip), vehicle: water.
The mark [2] stands for this setting: dose: 16.0 mg/kg/injection, schedule: Q04DX003 (ip), vehicle: water.
Setting [3] is: dose: 200.0 mg/kg/injection, schedule: Q01DX001 (ip), vehicle: Klucel (hydroxypropylcellulose) (HPC).
Setting [4] is: dose: 200.0 mg/kg/injection, schedule: Q01DX001 (ip), vehicle: saline.
Setting [5] is: dose: 400.0 mg/kg/injection, schedule: Q01DX001 (ip), vehicle: saline.
The mark [6] stands for this setting: dose: 200.0 mg/kg/injection, schedule: Q04DX003 (ip), vehicle: Klucel (hydroxypropylcellulose) (HPC).
Setting [7] is: dose: 400.0 mg/kg/injection, schedule: Q04DX003 (ip), vehicle: Klucel (hydroxypropylcellulose) (HPC).
[8] abbreviates: dose: 100.0 mg/kg/injection, schedule: Q04DX002 (ip), vehicle: Klucel (hydroxypropylcellulose) (HPC).
[9] abbreviates: dose: 200.0 mg/kg/injection, schedule: Q04DX002 (ip), vehicle: Klucel (hydroxypropylcellulose) (HPC).
[10] abbreviates: dose: 400.0 mg/kg/injection, schedule: Q04DX002 (ip), vehicle: Klucel (hydroxypropylcellulose) (HPC).
The mark [11] stands for this setting: dose: 100.0 mg/kg/injection, schedule: Q01DX001 (ip), vehicle: saline.
[12] abbreviates: dose: 200.0 mg/kg/injection, schedule: Q01DX009 (ip), vehicle: saline.
The mark [13] stands for this setting: dose: 200.0 mg/kg/injection, schedule: Q04DX003 (ip), vehicle: saline with Tween-80.
Setting [14] is: dose: 400.0 mg/kg/injection, schedule: Q04DX003 (ip), vehicle: saline with Tween-80.
Where [15] appears, read: dose: 100.0 mg/kg/injection, schedule: Q04DX003 (ip), vehicle: Klucel (hydroxypropylcellulose) (HPC).
Setting [16] is: dose: 400.0 mg/kg/injection, schedule: Q01DX009 (ip), vehicle: saline with Tween-80.

Turning to `COc1cccc2c1C(=O)c1c(O)c3c(c(O)c1C2=O)C[C@@](O)(/C(C)=N\O)C[C@@H]3OC1CC(N)C(O)C(C)O1` (stereo not given in full), the survivor count (dose: 0.25 mg/kg/injection, schedule: Q04DX003 (ip), vehicle: water) is 6 of 6; the survivor count (dose: 0.5 mg/kg/injection, schedule: Q04DX003 (ip), vehicle: water) is 6 of 6; the survivor count (dose: 1.0 mg/kg/injection, schedule: Q04DX003 (ip), vehicle: water) was 6 of 6; the survivor count (dose: 2.0 mg/kg/injection, schedule: Q04DX003 (ip), vehicle: water) is given as 6 of 6; the survivor count (dose: 4.0 mg/kg/injection, schedule: Q04DX003 (ip), vehicle: water) is given as 6 of 6; the survivor count under setting [1] was 6 of 6. The survivor count under setting [2] is 6 of 6. Moreover, the T/C under setting [1] is 129 % of control; the T/C under setting [2] was 126 % of control; the T/C (dose: 32.0 mg/kg/injection, schedule: Q04DX003 (ip), vehicle: water) was 127 % of control.
For `CCCCn1c(C)nc2c([N+](=O)[O-])cc(C(F)(F)F)cc21`, the survivor count under setting [3] is 3 of 3.
On to `OCC(O)C(O)C(O)C(O)C(c1ccc(F)cc1)c1ccc(F)cc1` (stereo not given), for which the survivor count is recorded as 1 of 4 under setting [4] and 0 of 4 under setting [5].
With `O=[N+]([O-])c1ccccc1SNc1ccc(NSc2ccccc2[N+](=O)[O-])cc1`, the survivor count was 6 of 6 (dose: 25.0 mg/kg/injection, schedule: Q01DX001 (ip), vehicle: saline with Tween-80); 6 of 6 (dose: 50.0 mg/kg/injection, schedule: Q01DX001 (ip), vehicle: saline with Tween-80); 6 of 6 (dose: 100.0 mg/kg/injection, schedule: Q01DX001 (ip), vehicle: saline with Tween-80).
`COc1cccc(C(=O)O)c1O`: the survivor count (dose: 300.0 mg/kg/injection, schedule: Q01DX001 (ip), vehicle: acetone) is reported as 3 of 6.
For `[O-][n+]1c2ccc(Cl)cc2nc2ccc(Cl)cc21`, the survivor count is recorded as 6 of 6 under setting [6] and 6 of 6 under setting [7].
Regarding `[Cl][Hg][Cl].c1ccc(N=P(c2ccccc2)(c2ccccc2)c2ccccc2)cc1`, the survivor count by setting is: (dose: 37.5 mg/kg/injection, schedule: Q01DX001 (ip), vehicle: other) 3 of 6; (dose: 75.0 mg/kg/injection, schedule: Q01DX001 (ip), vehicle: other) 0 of 6; (dose: 150.0 mg/kg/injection, schedule: Q01DX001 (ip), vehicle: other) 0 of 6; (dose: 300.0 mg/kg/injection, schedule: Q01DX001 (ip), vehicle: other) 0 of 6.
Turning to `O=[N+]([O-])c1cc(Cl)cc(Cl)c1O`, the survivor count runs as follows: (dose: 50.0 mg/kg/injection, schedule: Q01DX009 (ip), vehicle: Klucel (hydroxypropylcellulose) (HPC)) 2 of 3; under setting [8], 0 of 3; under setting [9], 0 of 3; under setting [10], 0 of 3.
Consider `CC(C)=CCc1ccc(O)cc1`, for which the survivor count is, setting by setting: (dose: 200.0 mg/kg/injection, schedule: Q01DX009 (ip), vehicle: saline + alcohol) 5 of 6; (dose: 400.0 mg/kg/injection, schedule: Q01DX009 (ip), vehicle: saline + alcohol) 1 of 6.
In the case of `CCCCCCOC(=O)C(N)Cc1ccc(N(CCCl)CCCl)cc1` (stereo not given), the T/C was 140 % of control (dose: 22.5 mg/kg/injection, schedule: Q01DX009 (ip), vehicle: other) and 128 % of control (dose: 45.0 mg/kg/injection, schedule: Q01DX001 (ip), vehicle: other).
On to `O=S(=O)(Nc1cc2c(nc3ccccn32)c2ccccc12)c1ccccc1`, for which the survivor count by setting is: under setting [11], 0 of 6; under setting [4], 0 of 6.
In the case of `N#CCCOCC(COCCC#N)OCCC#N`, the T/C under setting [12] was 131 % of control.
For the compound `N#C/C(=C/Cc1ccc(Cl)cc1)Nc1ccccc1C(N)=O`, the survivor count is listed as 6 of 6 (dose: 100.0 mg/kg/injection, schedule: Q01DX001 (ip), vehicle: Klucel (hydroxypropylcellulose) (HPC)); 6 of 6 under setting [3]; 6 of 6 (dose: 400.0 mg/kg/injection, schedule: Q01DX001 (ip), vehicle: Klucel (hydroxypropylcellulose) (HPC)).
With `CCN(CC)CCOC(=O)c1[nH]cnc1/N=N\N(C)C`, the survivor count under setting [5] is given as 2 of 4.
For `O=C(O)C(O)C(O)C(=O)O.[Cu+2]` (stereo not given), under “dose: 80.0 mg/kg/injection, schedule: Q01DX001 (ip), vehicle: saline”, the survivor count was 0 of 6.
Consider `C=C(Cl)CSCC`, for which the survivor count was 1 of 6 under setting [13] and 0 of 6 under setting [14].
As to `CC1CC2C(CC1=O)C(C)(C)CCC2(C)C` (stereo not given), the survivor count under setting [15] was 3 of 6.
`O=[N+]([O-])c1ccc2c(N=Nc3c(O)ccc4ccccc34)c(O)cc(S(=O)(=O)O)c2c1`: under setting [5], the survivor count is 3 of 6.
Take `COc1cc2c(cc1OC)-c1cc3ccc(OC)c(OC)c3c[n+]1CC2`: the survivor count is, setting by setting: under setting [8], 0 of 3; under setting [9], 0 of 3; under setting [10], 0 of 3.
For `CCC(C)(CC=C(C)C)c1ccncc1` (stereo not given), the survivor count is listed as 0 of 6 under setting [4] and 0 of 6 under setting [5].
On to `COC1OC(COS(=O)(=O)c2ccc(C)cc2)C(OC(=O)c2ccccc2)C(OC(=O)c2ccccc2)C1OS(=O)(=O)c1ccc(C)cc1` (stereo not given), for which the T/C under setting [8] is 130 % of control.
With `CC(=O)Nc1ccc(-c2cnc3ccccc3c2)cc1`, the survivor count is recorded as 2 of 6 under setting [11], 0 of 6 under setting [4] and 0 of 6 under setting [5].
For `O=C(Nc1ccccc1F)Nc1ccccc1Cl`, the survivor count by setting is: (dose: 100.0 mg/kg/injection, schedule: Q01DX009 (ip), vehicle: Klucel (hydroxypropylcellulose) (HPC)) 6 of 6; under setting [7], 6 of 6.
In the case of `CCCCCCCCCCCCCCCCCCNC(=O)CCl`, the survivor count (dose: 400.0 mg/kg/injection, schedule: Q01DX009 (ip), vehicle: Klucel (hydroxypropylcellulose) (HPC)) was 3 of 6.
Take `Cc1cscc(C)c1=S`: the survivor count by setting is: (dose: 100.0 mg/kg/injection, schedule: Q01DX009 (ip), vehicle: saline with Tween-80) 3 of 6; (dose: 200.0 mg/kg/injection, schedule: Q01DX009 (ip), vehicle: saline with Tween-80) 1 of 6; under setting [16], 2 of 6.
`CC1(C)N=C(N)N=C(N)N1c1ccc(OCC(=O)N2CCOCC2)cc1`: the survivor count under setting [12] is on record as 1 of 6.
As for `CCCNC(C)(C)C(SSSC(c1ccc(C(F)(F)F)cc1)C(C)(C)NCCC)c1ccc(C(F)(F)F)cc1` (stereo not given), the survivor count under setting [16] is on record as 2 of 6.
For `O=C(/C(=C\c1ccccc1)CBr)c1ccc(Cl)cc1`, the survivor count is given as 1 of 6 under setting [13] and 3 of 6 under setting [14].
Take `CC(=O)N=C1C=C(NC(C)=O)C(=O)c2ncccc21`: the survivor count under setting [13] is 1 of 6.
In the case of `O=C(O)CSc1cc(-c2ccc(Cl)cc2)s[s+]1`, the survivor count runs as follows: (dose: 25.0 mg/kg/injection, schedule: Q01DX009 (ip), vehicle: water) 5 of 6; (dose: 100.0 mg/kg/injection, schedule: Q04DX003 (ip), vehicle: water) 0 of 6; (dose: 200.0 mg/kg/injection, schedule: Q04DX003 (ip), vehicle: water) 0 of 6; (dose: 400.0 mg/kg/injection, schedule: Q04DX003 (ip), vehicle: water) 0 of 6.
Turning to `CN=C1C=C(NC)C(F)(F)C1(F)F`, the survivor count under setting [15] is 0 of 6, the survivor count under setting [6] is on record as 0 of 6 and the survivor count under setting [7] is reported as 0 of 6.
